{"source": "PubChem BioAssay AID1259254 – NCATS – 2017", "aim": "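Finding genes that stop cells copying their DNA twice in one cycle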 (primary screen)", "cells": "human HCT116 colorectal cancer cells", "reagents": "single siRNA against human genes", "time to read-out": "3 days", "read-out": "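Imaged Hoechst DNA stain sorts each cell into a cycle phase by DNA amount; per plate, G2 fraction set to 0% for non-targeting and 100% for GMNN siRNA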", "direction": "G2 robust z-score and G2 cells, % of GMNN control: higher = more G2 cells, more excess DNA replication", "rule for the call": "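Active siRNAs have a G2 robust z of 5 or more median absolute deviations over the median, which in these data means about 38% or higher of GMNN control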", "note": "Shown is one part, drawn at random, of about 59,000 reagents. Of all reagents, about 1,550 (2.6%) got an active call. 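G2 share is only a proxy for re-replication; each gene was hit by three separate siRNAs, and active genes were retested.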 The numbers tell different reagents against one gene apart. Further read-outs or replicates are left out here. No sequences are given here. Not stated in the record: the amount of reagent."}
{"Target gene": "RPSAP48 (ribosomal protein SA pseudogene 48)", "reagent": 1, "G2 robust z-score": -0.484, "G2 cells, % of GMNN control": -0.435, "Call": "inactive"}
{"Target gene": "RPSAP48 (ribosomal protein SA pseudogene 48)", "reagent": 2, "G2 robust z-score": 2.86, "G2 cells, % of GMNN control": 23.1, "Call": "inactive"}
{"Target gene": "RPSAP48 (ribosomal protein SA pseudogene 48)", "reagent": 3, "G2 robust z-score": -1.03, "G2 cells, % of GMNN control": -4.27, "Call": "inactive"}
{"Target gene": "PATZ1 (POZ/BTB and AT hook containing zinc finger 1)", "reagent": 1, "G2 robust z-score": -0.944, "G2 cells, % of GMNN control": -3.68, "Call": "inactive"}
{"Target gene": "PATZ1 (POZ/BTB and AT hook containing zinc finger 1)", "reagent": 2, "G2 robust z-score": 0.0964, "G2 cells, % of GMNN control": 3.65, "Call": "inactive"}
{"Target gene": "PATZ1 (POZ/BTB and AT hook containing zinc finger 1)", "reagent": 3, "G2 robust z-score": -0.0831, "G2 cells, % of GMNN control": 2.38, "Call": "inactive"}
{"Target gene": "VN1R5 (vomeronasal 1 receptor 5 (gene/pseudogene))", "reagent": 1, "G2 robust z-score": 2.83, "G2 cells, % of GMNN control": 22.9, "Call": "inactive"}
{"Target gene": "VN1R5 (vomeronasal 1 receptor 5 (gene/pseudogene))", "reagent": 2, "G2 robust z-score": -0.0437, "G2 cells, % of GMNN control": 2.66, "Call": "inactive"}
{"Target gene": "VN1R5 (vomeronasal 1 receptor 5 (gene/pseudogene))", "reagent": 3, "G2 robust z-score": -0.0724, "G2 cells, % of GMNN control": 2.46, "Call": "inactive"}
{"Target gene": "SEPSECS", "reagent": 1, "G2 robust z-score": 1.32, "G2 cells, % of GMNN control": 12.2, "Call": "inactive"}
{"Target gene": "SEPSECS", "reagent": 2, "G2 robust z-score": -0.174, "G2 cells, % of GMNN control": 1.75, "Call": "inactive"}
{"Target gene": "SEPSECS", "reagent": 3, "G2 robust z-score": -0.78, "G2 cells, % of GMNN control": -2.52, "Call": "inactive"}
{"Target gene": "PIR (pirin)", "reagent": 1, "G2 robust z-score": -1.11, "G2 cells, % of GMNN control": -4.84, "Call": "inactive"}
{"Target gene": "PIR (pirin)", "reagent": 2, "G2 robust z-score": 1.39, "G2 cells, % of GMNN control": 12.7, "Call": "inactive"}
{"Target gene": "PIR (pirin)", "reagent": 3, "G2 robust z-score": 1.44, "G2 cells, % of GMNN control": 13.1, "Call": "inactive"}

2 of these entries, reformatted.
Target gene,reagent,G2 robust z-score,"G2 cells, % of GMNN control",Call
SEPSECS,1,1.32,12.2,inactive
SEPSECS,2,-0.174,1.75,inactive

Further results:
{"Target gene": "ATMIN (ATM interactor)", "reagent": 1, "G2 robust z-score": -0.12, "G2 cells, % of GMNN control": 2.12, "Call": "inactive"}
{"Target gene": "ATMIN (ATM interactor)", "reagent": 2, "G2 robust z-score": -1.03, "G2 cells, % of GMNN control": -4.27, "Call": "inactive"}
{"Target gene": "ATMIN (ATM interactor)", "reagent": 3, "G2 robust z-score": 0.407, "G2 cells, % of GMNN control": 5.83, "Call": "inactive"}
{"Target gene": "ATPAF1 (ATP synthase mitochondrial F1 complex assembly factor 1)", "reagent": 1, "G2 robust z-score": 0.228, "G2 cells, % of GMNN control": 4.57, "Call": "inactive"}
{"Target gene": "ATPAF1 (ATP synthase mitochondrial F1 complex assembly factor 1)", "reagent": 2, "G2 robust z-score": 0.189, "G2 cells, % of GMNN control": 4.3, "Call": "inactive"}
{"Target gene": "ATPAF1 (ATP synthase mitochondrial F1 complex assembly factor 1)", "reagent": 3, "G2 robust z-score": -0.291, "G2 cells, % of GMNN control": 0.917, "Call": "inactive"}
{"Target gene": "HDAC2 (histone deacetylase 2)", "reagent": 1, "G2 robust z-score": -0.123, "G2 cells, % of GMNN control": 2.1, "Call": "inactive"}
{"Target gene": "HDAC2 (histone deacetylase 2)", "reagent": 2, "G2 robust z-score": 5.25, "G2 cells, % of GMNN control": 39.9, "Call": "active"}
{"Target gene": "HDAC2 (histone deacetylase 2)", "reagent": 3, "G2 robust z-score": -0.553, "G2 cells, % of GMNN control": -0.926, "Call": "inactive"}
